# Results: PubChem BioAssay AID624415 (National Center for Advancing Translational Sciences (NCATS), 2012)
# By UniProt entry, the sequences of proteins in these tests, tags left out.
# UniProt Q9GZU1, whole entry, looked up: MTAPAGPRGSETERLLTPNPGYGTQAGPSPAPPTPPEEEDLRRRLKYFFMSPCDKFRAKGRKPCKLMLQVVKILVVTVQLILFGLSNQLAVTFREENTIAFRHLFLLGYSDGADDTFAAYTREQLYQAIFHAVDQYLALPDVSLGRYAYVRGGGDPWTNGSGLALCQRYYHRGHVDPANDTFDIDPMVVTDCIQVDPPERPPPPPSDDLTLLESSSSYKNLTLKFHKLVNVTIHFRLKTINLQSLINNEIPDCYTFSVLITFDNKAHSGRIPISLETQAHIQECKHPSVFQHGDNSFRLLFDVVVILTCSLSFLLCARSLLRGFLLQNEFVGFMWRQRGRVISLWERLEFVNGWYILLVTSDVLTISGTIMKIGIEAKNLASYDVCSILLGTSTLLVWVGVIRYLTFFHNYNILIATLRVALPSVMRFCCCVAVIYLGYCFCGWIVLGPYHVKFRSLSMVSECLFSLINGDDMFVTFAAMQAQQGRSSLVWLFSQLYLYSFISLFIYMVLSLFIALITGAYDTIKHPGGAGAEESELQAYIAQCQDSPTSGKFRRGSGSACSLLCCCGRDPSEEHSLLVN
# Among all 390,000 compounds or so, about 60 (0.02%) were called active. Inconclusive means that the source gave no clear call. Such entries were picked first, then a sample of the others. No stated cut-off is given here; in the data, active means activity change below about -50%; inconclusive means between about -30% and that limit; inactive means weaker than that.
# Molecular target: Mucolipin-1 (Homo sapiens) (UniProt Q9GZU1)
# Assay: qHTS for Inhibitors of the Human Mucolipin Transient Receptor Potential 1 (TRPML1);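 further: stimulus is agonist 54-4 at its EC80 concentration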
# Conditions: TRPML1-inducible cells, Ca2+ dye fluorescence, FDSS; stronger effect = lower value; inhibition of EC80 agonist-evoked calcium signal
# In short: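 TRPML1-DL cells, Tet-induced overnight (~16 h, 37 °C) at 1,500 cells/well, were loaded with Ca8 no-wash dye plus quencher for 45-90 min at room temperature. Compounds were pinned during FDSS kinetic reading; agonist 54-4 at EC80 (4 uM final) then added.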
# On the % scale 0 is the no-effect control and ±100 the full control effect.
row,SMILES,"activity change, negative = inhibition"
1,COc1ccc(N2CCN(c3ncnc4scc(-c5ccc(F)cc5)c34)CC2)cc1,inactive: 79.7%
2,O=C(NCCC1CCCCN1S(=O)(=O)c1ccc(Cl)cc1)C(=O)NCCN1CCOCC1 (centres undefined),inconclusive: -42.4%
3,CC1CCN(c2ccccc2NC(=S)NC(=O)C(C)(C)C)CC1,inconclusive: -39.3%
4,CC1CCN(CCCCOc2ccc(C(C)(C)C)cc2)CC1,inactive: -4.27%
5,Oc1c(CN2CCOCC2)cc(CN2CCOCC2)c(O)c1CN1CCOCC1,inactive: 4.98%
6,CCn1c(-c2ccccc2O)n[nH]c1=S,inconclusive: -33%
7,CC(C)OC(=O)c1c(-c2ccccc2)c(-c2ccccc2)nn(C)c1=O,inconclusive: -33.1%
8,O=C(Nc1ccccn1)c1cccc(S(=O)(=O)N2CCOCC2)c1,inactive: 79.9%
9,CCCc1cc(=O)[nH]c(SCC(=O)N(C)CC(=O)Nc2ccc(C)cc2)n1,inconclusive: -37.1%
10,CC(C)(C)NCC(=O)c1c[nH]c2ccccc12,inconclusive: -33.5%
11,CCOC(=O)c1c(NC(=O)CSc2nc3ccc(OC)cc3[nH]2)sc2c1CC(C)(C)NC2(C)C,inactive: 7.9%
12,Cn1nccc1C(=O)Nc1ccc2c(c1)OCO2,inactive: 0.0103%
13,CC(=O)CCc1ccc(OCCCCN2CCC(Cc3ccccc3)CC2)cc1,inconclusive: -40.5%
14,C/C(CC(=O)Nc1cc(Cl)ccc1Cl)=N\NC(N)=S,inactive: -12.1%
15,Cc1ccc(NC(=O)C2CCN(c3nc4ccccc4[nH]3)CC2)c(C)c1,inconclusive: -30.7%
16,CC(C)(C)c1ccc(NC(=O)CNC2CCCc3ccccc32)cc1 (centres undefined),inconclusive: -34.5%
17,Cc1cncn1CCc1nc2c3ccccc3nc(SCC(=O)Nc3cccc(Cl)c3)n2n1,inconclusive: -30.4%
18,CCC(Cn1nnc2ccccc2c1=O)NC(=O)Nc1ccc(C)c(C)c1 (centres undefined),active: -69.1%
19,O=C1CCN(Cc2ccccc2)CCN1[C@H](CO)c1ccccc1,inactive: -21.2%
20,O=C(Nc1ccc(Cl)cc1Cl)c1cc(S(=O)(=O)N2CCc3ccccc32)ccc1F,inconclusive: -31%
21,Cc1cc(O)c(C2(O)C(=O)Nc3cc(Br)ccc32)cc1C (centres undefined),inconclusive: -32.3%
22,CN1CCN(CCCNC(=O)c2ccc(/C=C3\Oc4ccccc4N(Cc4ccccc4F)C3=O)cc2)CC1,inconclusive: -31.2%
23,Cc1ccc(NC(=O)CSc2nc3ncccc3[nH]2)cc1F,inactive: -0.763%

row,SMILES,"activity change, negative = inhibition"
1,Cc1cccc(-n2ncc(C#N)c2N)c1,inconclusive: -31.2%
2,COc1ccc(NC(=O)/C(C#N)=C/c2ccc(OCc3cc(=O)n4nc(C)sc4n3)cc2)cc1,inactive: -16.5%
3,Cc1cccc(NC(=O)C2CCN(c3nnc(-n4c(C)ccc4C)s3)CC2)c1C,inconclusive: -30.2%
4,CC1C(=O)CC(c2ccc([N+](=O)[O-])cc2)NC1c1ccc([N+](=O)[O-])cc1 (centres undefined),inconclusive: -31.4%
5,COc1ccc(CCNC(=O)CNCC(c2ccccc2)N(C)C)cc1OC (centres undefined),inconclusive: -30.1%
6,O=C(N[C@H](Cc1ccc(Cl)cc1)C(=O)O)OCC1c2ccccc2-c2ccccc21,inactive: -29.2%
7,O=C(NCC(c1ccco1)N1CCN(c2ccccc2F)CC1)C(=O)NC1CC1 (centres undefined),inactive: 35%
8,CCOc1ccc(S(=O)(=O)NCCC(=O)NCCc2ccc(C(C)C)cc2)cc1,inconclusive: -30.8%
9,COc1ccc(OC)c(Nc2ncnc3sc(-c4ccccc4)cc23)c1,inconclusive: -44.4%
10,O=C(c1ccccc1Cl)N1c2ncnn2C2(CCCCC2)[C@@H]2CCCC[C@@H]21,inconclusive: -41.3%
11,CCn1ncc(/C=N\NC(=O)COc2cc(C)cc(C)c2)c1C,inconclusive: -30.7%
12,COc1ccc(S(=O)(=O)Nc2ccc(NC(C)=O)cc2)cc1,inconclusive: -30.5%
13,CCn1nc(C)c(Br)c1-c1nc(CS(=O)(=O)c2ccc(F)cc2)no1,inactive: -12.3%
14,Cn1cccc1/C=C1\CCC/C(=C\c2cccn2C)C1=O,inactive: -10.5%
15,C=CCc1ccccc1OCCn1c(C2CC(=O)N(Cc3ccc(F)cc3)C2)nc2ccccc21 (centres undefined),inconclusive: -34.8%
16,NNC(=O)c1ccc(Oc2cc(Cl)cc(Cl)c2)o1,inconclusive: -33.3%
17,COc1cccc(/C=N/NC(=O)c2cc(-c3cccn3C)n[nH]2)c1,inactive: -5.38%
18,CC(C)(C)c1ccc(C(=O)N/N=C/c2ccccn2)cc1,inactive: -9.86%
19,Cc1ccc(NC(=O)Cn2cc(C(=O)c3cccs3)c3ccccc32)cc1C,inconclusive: -36.6%
20,O=C(CC1SC(=Nc2ccc(O)cc2)NC1=O)Nc1ccccc1 (centres undefined),inconclusive: -33.6%
21,CCN(c1ccccc1)S(=O)(=O)c1ccc(N2CCN(c3ccc(OC)cc3)CC2)nc1,inactive: -8.15%
22,CC(NS(=O)(=O)c1ccccc1)C(=O)Nc1nccs1 (centres undefined),inconclusive: -33.5%
23,CCC(=O)N1c2ccccc2CC1C(=O)NCCCN1CCN(c2cc(C)ccc2C)CC1 (centres undefined),inconclusive: -41.2%

# As entered above.
# For activity change, negative = inhibition, Cc1cccc(-n2ncc(C#N)c2N)c1 reads inconclusive: -31.2%
# For activity change, negative = inhibition, O=C(N[C@H](Cc1ccc(Cl)cc1)C(=O)O)OCC1c2ccccc2-c2ccccc21 reads inactive: -29.2%

# Next results:

row,SMILES,"activity change, negative = inhibition"
1,CC(C)C(NC(=O)C1CCCCC1)C(=O)NCc1ccccn1 (centres undefined),inconclusive: -30.4%
2,CC(C)(C)n1ncc2c(=O)n(Cc3ccc(SC(=O)O)cc3Cl)cnc21,inactive: 0.813%
3,CCOc1cc(CN2CCCC(C(=O)c3cccc(C(F)(F)F)c3)C2)ccc1O (centres undefined),inconclusive: -33.4%
4,CCOC(=O)c1ccc(NC(=O)Cn2ccc([N+](=O)[O-])n2)cc1,inconclusive: -31.4%
5,CC(=O)Nc1cc(C(=O)O)ccc1S(=O)(=O)c1ccc(C)cc1,inconclusive: -33.8%
6,Cc1ccc(-c2csc3ncnc(NCCN4CCOCC4)c23)cc1,inconclusive: -33%
7,CCC(=O)NC(=S)Nc1ccc(NC(=O)c2ccc(OC)cc2)cc1,inconclusive: -45.6%
8,Cc1cc(=O)n2[nH]nnc2n1,inconclusive: -32.3%
9,O=C(O)/C=C/C(=O)Nc1ccc(OC(F)(F)F)cc1,inconclusive: -36.2%
10,O=C(Nc1cccc(NC(=O)c2ccccc2Cl)c1)c1ccc(F)cc1,inactive: 14.7%
11,Cc1ccc(Nc2ncnc3c2oc2ccccc23)cc1,inactive: -5.73%
12,CS(=O)(=O)N1CCC(C(=O)NCc2ccccc2)CC1,inconclusive: -34.6%
13,OC1(c2ccccc2)CC(c2ccccc2)c2ccccc2O1 (centres undefined),inactive: -4.38%
14,N#C/C(=C/c1ccc(-c2ccccc2)o1)c1nc(-c2cccs2)cs1,inconclusive: -33.7%
15,CCOC(=O)c1cc(-c2ccc(OC)cc2)n(CCC(=O)NCc2ccccc2OC)c1C,inactive: 2.1%
16,OC(Cn1cncn1)(Cn1cncn1)c1ccc(F)cc1F,inconclusive: -36.3%
17,COC(=O)c1cc(NS(=O)(=O)c2ccc(F)cc2)ccc1N1CCOCC1,inconclusive: -33.8%
18,CN1CCN(C(=O)c2ccccc2N(Cc2ccccc2)S(=O)(=O)c2ccccc2)CC1,inconclusive: -30.1%
19,CCOc1ccccc1-n1c(=S)sc2c(=O)n(-c3ccc(C)cc3)c(=S)[nH]c21,inconclusive: -36.9%
20,CCNC(=O)C1CCCN(C(=O)Cc2ccc3ccccc3c2)CC1 (centres undefined),inconclusive: -33.4%
21,Cc1cc(C(=O)COC(=O)c2cc(O)c3ccccc3c2O)c(C)n1CC1CCCO1 (centres undefined),inactive: 10%
22,CCc1nnc(SCC(=O)NCCC2=CCCCC2)nc1CC,inconclusive: -36.4%
23,O=C(O)C(c1ccccc1)N1CCCCC1 (centres undefined),inconclusive: -33.4%

# Structural class, the compounds so far with a CF3 group
row,SMILES,"activity change, negative = inhibition"
3,CCOc1cc(CN2CCCC(C(=O)c3cccc(C(F)(F)F)c3)C2)ccc1O (centres undefined),inconclusive: -33.4%
9,O=C(O)/C=C/C(=O)Nc1ccc(OC(F)(F)F)cc1,inconclusive: -36.2%

# (cont.)

row,SMILES,"activity change, negative = inhibition"
1,COc1cc2c(cc1OC)C(COc1ccccc1OC)N(C(=O)COc1ccc(Cl)cc1)CC2 (centres undefined),inactive: 16.7%
2,O=C(Cc1ccc(Cl)cc1)Nc1ccccc1CO,inconclusive: -37.7%
3,O=C(NCC(c1ccc2c(c1)OCO2)N1CCOCC1)c1cccc(Cl)c1 (centres undefined),inconclusive: -31.4%
4,Cc1cc(C)c(S(=O)(=O)N(C)c2ccccc2)c(C)c1,inconclusive: -30.2%
5,CCCCNC(=O)[C@@H]1CSC2c3ccc(OC)c(OC)c3C(=O)N21 (some centres undefined),inconclusive: -38.7%
6,CC(C)Nc1nc(NC(N)=S)nc(NC(C)(C)C)n1,inactive: -2.69%
7,O=C1CNC(=O)/C(=C\c2ccccc2)N1,inconclusive: -32%
8,CC(C)c1ccc(N2C(=O)/C(=C/N(C)C)SC2=S)cc1,inactive: -3.79%
9,COc1ccccc1N1CCN(C(=O)C2CCCCN2S(=O)(=O)c2ccc(C)cc2)CC1 (centres undefined),inconclusive: -34%
10,Cc1cc(C)c(CN2CCCC(CNC(=O)c3ccc(F)cc3)C2)c(-n2cccn2)c1 (centres undefined),inactive: 6.44%
11,NS(=O)(=O)c1ccc2c(c1)oc(=O)c1cc(S(N)(=O)=O)ccc12,inconclusive: -34%
12,O[C@@H]1CN(Cc2cccs2)[C@@H](c2ccccc2)C[C@H]1n1cc(-c2ccc(F)cc2)nn1,inconclusive: -39.7%
13,O=C(COC(=O)CN1C(=O)c2ccccc2C1=O)NC1CCCC1,inconclusive: -30.6%
14,O=C(Cn1ccc2cc(S(=O)(=O)N3CCCCCC3)ccc21)NCCc1ccccc1Cl,inactive: 1.15%
15,COc1ccc(NC(=O)C2CCCN(S(=O)(=O)c3cccnc3)C2)cc1OC (centres undefined),inconclusive: -33.1%
16,CC(C)(C)c1cccc(/C=N/O)c1O,inconclusive: -33.1%
17,CCC(C)NC(=O)CN1C(=O)CSc2ccc(S(=O)(=O)N3CCCC3)cc21 (centres undefined),inconclusive: -44.2%
18,Cc1nn(C)cc1C(N)=O,inconclusive: -40.2%
19,CC(C)=CCc1c(-c2ccc(O)cc2O)oc2c3c(cc(O)c2c1=O)OC(C)(C)C=C3,inconclusive: -36.2%
20,COc1cc(C2C3=C(CCCC3=O)Nc3[nH]n(-c4ccccc4)c(=O)c32)cc(OC)c1OC (centres undefined),inconclusive: -45.5%
